According to PubChem BioAssay AID504467 (National Center for Advancing Translational Sciences (NCATS), 2011):
The whole screen tested about 330,000 compounds, of which about 7,700 (2.3%) were called active. This list was built around the results that the source calls inconclusive (neither active nor inactive); the mix of calls is not that of the screen. The call rests on the fitted dose curve; in most records, active means well fitted inhibition curve with a large enough effect; inconclusive means small, poorly fitted or top-dose-only effect, or effect the other way; inactive means flat fitted curve, though single readings scatter. Where the call is inconclusive, the potency comes from a doubtful curve fit.

Assay: qHTS screen for small molecules that inhibit ELG1-dependent DNA repair in human embryonic kidney (HEK293T) cells expressing luciferase-tagged ELG1; further: nearly all actives have a fitted effect of over 55% in size
Settings: HEK293T ELG1-luciferase reporter, luminescence, 16 h, DNA damage induced by 5-fluorouridine; activity change, negative = inhibition: at 46.1 µM (top of the series)
In short: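 DMSO vehicle served as the neutral condition. Each well held 2,000 cells given 5-fluorouridine plus compound; after 16 hr at 37 °C/5% CO2, ONE-Glo was added and luciferase measured 30 min later.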
On the % scale 0 is the no-effect control and ±100 the full control effect; potency means the concentration at half of the fitted maximal effect.

Structure (SMILES)	activity change, negative = inhibition	Potency
COCCCn1cn[nH]c1=S	inactive: -3.2%	
O=C(CS(=O)(=O)Cc1ccccc1)NCCc1ccc(F)cc1	inactive: 5.22%	
Cc1ccc(CN(C)C(=O)c2cccc(S(=O)(=O)N3CCCC3)c2)o1	inactive: 9.82%	
CCNC(=S)NNC(=O)c1csc(CC)c1	inactive: -0.139%	
O=C(COc1ccccc1)NCC(=O)N/N=C/c1ccc(O)cc1O		inconclusive: 8.2 µM [inhibitor, partial curve, poor fit]
O=S(=O)(NCCS(=O)(=O)N1CCN(c2ccccc2)CC1)c1ccccc1	inactive: 7.16%	
Cc1cccc(NC(=O)Nc2ccccn2)c1C		inconclusive: 10.3 µM [activator, partial curve]
COc1ccccc1-n1cc(C(=O)NCC(=O)N2CCN(c3ccccn3)CC2)c2ccccc2c1=O		inconclusive: 29.1 µM [activator, single point]
COc1ccc(-c2nc(/C=C3\C(C)=Nc4ccccc43)c(O)o2)cc1	inactive: 15.4%	
CN(C[C@H](CC1CCCCC1)N(C[C@H](Cc1ccccc1)N(CCc1ccccc1)N=O)N=O)N=O		inconclusive: 25.9 µM [activator, partial curve, poor fit]
COCc1cc(/C=N\NC(=O)COc2ccccc2)ccc1OC	inactive: -2.66%	
Cc1ccccc1NS(=O)(=O)c1cc(C(=O)Nc2cccc(N(C)S(C)(=O)=O)c2)ccc1C		inconclusive: 25.9 µM [inhibitor, single point]
COC(=O)C(NC=O)C(O)(Cc1ccccc1)C(F)(F)F (configuration not stated)		inconclusive: 23.1 µM [activator, single point]
Cc1ccccc1NC(=O)c1snc2c(=O)[nH]cnc12	inactive: -6.05%	
CS(=O)(=O)NN1C(=O)c2ccccc2NC1c1c[nH]c2ccccc12 (configuration not stated)	inactive: -0.904%	
NC(=O)c1cc(Cc2ccccc2)sc1NC(=O)c1ccco1		inconclusive: 3.26 µM [activator, partial curve]
O=C(Nc1nc2cc3c(cc2s1)OCCO3)c1ccncc1		inconclusive: 2.31 µM [activator, partial curve]
CCOC(=O)[C@H](O)[C@@H](O)c1cccc([C@H](O)[C@@H](O)C(=O)OCC)c1	inactive: -8.43%	
COc1ccc(-c2cc3ccccc3s2)cc1[C@H]1[C@H]2C=CC[C@@H](C)[C@@H]2C(=O)N1Cc1ccccc1		inconclusive: 4.61 µM [activator, partial curve]
COc1ccc(/C=N/NC(=O)c2cc(C3CC3)[nH]n2)cc1OC	inactive: 8.82%	
Cc1cc(C)n2nc(-c3ccc(Cl)cc3)cc2n1		inconclusive: 7.3 µM [activator, partial curve]
CCN(CCO)c1ncnc2c1sc1nc(C(C)C)c3c(c12)CC(C)(C)OC3		inconclusive: 0.231 µM [inhibitor, single point]

Single entries from the results shown.
Under activity change, negative = inhibition, `COc1ccc(-c2nc(/C=C3\C(C)=Nc4ccccc43)c(O)o2)cc1` reads inactive: 15.4%
Under Potency, `COC(=O)C(NC=O)C(O)(Cc1ccccc1)C(F)(F)F` (configuration not stated) reads inconclusive: 23.1 µM [activator, single point]
